Publication doi:10.1101/2023.09.03.556061
Results are given in words; binding and its absence hold for the method and conditions named.

Amino acid sequences for entries named in this document (tags omitted). Residues count along the entry.
UniProt P05067, residues 672-711: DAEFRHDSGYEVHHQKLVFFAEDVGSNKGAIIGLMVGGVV
UniProt P00004: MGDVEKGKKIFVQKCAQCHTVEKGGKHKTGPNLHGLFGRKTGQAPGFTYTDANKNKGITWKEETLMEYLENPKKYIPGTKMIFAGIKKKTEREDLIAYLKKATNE

Target: N-terminal rhodamine-B tagged Aβ (RAβ 1-40) (UniProt P05067)
Experiment: fluorescence correlation spectroscopy

**Q.** With “Cytochrome C (from UniProt P00004 1-105)” as the substance, how does the binding read?
**A.** Its binding is “no binding”.
